PMC7038622
No constants are given. Whether binding was seen depends on the method and setting. In cells and extracts the contact can be indirect. A yes stands for co-enrichment or nearness to the bait. Other partners may have been found.

Sequences of proteins named here, by UniProt entry; tags and fusion partners are left off.
UniProt P63092: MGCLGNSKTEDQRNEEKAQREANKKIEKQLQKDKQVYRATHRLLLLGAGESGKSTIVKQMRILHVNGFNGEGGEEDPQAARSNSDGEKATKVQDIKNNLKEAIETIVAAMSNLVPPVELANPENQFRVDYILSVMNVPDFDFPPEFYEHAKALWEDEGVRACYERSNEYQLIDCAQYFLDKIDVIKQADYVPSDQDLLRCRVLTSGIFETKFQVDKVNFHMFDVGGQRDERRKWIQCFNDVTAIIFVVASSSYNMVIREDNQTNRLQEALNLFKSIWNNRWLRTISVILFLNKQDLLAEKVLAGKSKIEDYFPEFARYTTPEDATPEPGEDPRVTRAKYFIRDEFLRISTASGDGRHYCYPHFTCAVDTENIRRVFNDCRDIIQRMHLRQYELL
UniProt P40763: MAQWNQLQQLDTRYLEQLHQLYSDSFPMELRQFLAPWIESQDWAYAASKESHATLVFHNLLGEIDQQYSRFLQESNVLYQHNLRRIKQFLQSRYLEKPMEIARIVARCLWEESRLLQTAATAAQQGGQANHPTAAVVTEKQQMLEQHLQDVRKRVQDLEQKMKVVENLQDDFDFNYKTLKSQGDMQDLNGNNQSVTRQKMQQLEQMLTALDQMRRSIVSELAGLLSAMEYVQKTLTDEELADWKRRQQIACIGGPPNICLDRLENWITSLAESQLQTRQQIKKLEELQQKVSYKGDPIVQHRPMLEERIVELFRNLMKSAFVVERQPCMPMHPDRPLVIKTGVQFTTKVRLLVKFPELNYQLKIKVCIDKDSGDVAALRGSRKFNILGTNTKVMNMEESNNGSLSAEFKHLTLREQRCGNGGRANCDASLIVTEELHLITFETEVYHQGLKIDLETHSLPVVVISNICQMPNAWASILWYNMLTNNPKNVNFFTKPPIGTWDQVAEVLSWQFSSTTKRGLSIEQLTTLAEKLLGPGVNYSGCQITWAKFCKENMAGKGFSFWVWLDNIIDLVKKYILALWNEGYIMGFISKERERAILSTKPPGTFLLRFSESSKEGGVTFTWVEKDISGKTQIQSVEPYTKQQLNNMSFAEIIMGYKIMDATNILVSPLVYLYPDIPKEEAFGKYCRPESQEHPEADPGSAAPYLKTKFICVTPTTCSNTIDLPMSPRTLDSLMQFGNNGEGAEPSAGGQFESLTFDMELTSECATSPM

Target: G-protein alpha-subunit (GNAS), endogenous (human (endogenous in HepG2)) (UniProt P63092)
Test: affinity purification with mass spectrometry; co-IP with anti-GNAS antibody from HepG2 cells, protein A-agarose beads, SDS-PAGE, silver stain, LC-MS/MS (UPLC-QTOF)

signal transducer and activator of transcription 3 (STAT3), endogenous (from UniProt P40763 1-770)
binding: binds
